Data as given in PubChem BioAssay AID1259405 (NCATS, 2018).
The whole screen tested about 50,000 reagents; below is a part drawn at random. About 4,000 of all reagents (8%) count as active. 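Mouse siRNA library applied to hamster cells; one well for each siRNA.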 Entries without a mark were called inactive. Reagents against one gene are numbered here. Reagent sequences are not shown.

Screen: 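Mouse-designed siRNAs used to find CHO productivity engineering targets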 (primary screen)
Cell system: Chinese hamster CHO-K1 ovary cells with stable secreted eGFP expression
Reagents: single siRNA against mouse genes, 0.8 pmol siRNA per well (2 µl of 400 nM stock)
Time to read-out: 3 days
Measurement: 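Per-well intracellular GFP measured by laser scanning cytometry, plus viability from ATP luminescence, each relative to plate median of non-targeting control wells, in %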
Direction: GFP, % of control: higher = more GFP per well, higher productivity; viability (ATP), % of control: higher = more viable cells (more ATP)
Active means: 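a knock-down is called active if GFP reaches 120% or more of non-targeting control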

gene | reagent | GFP, % of control | viability (ATP), % of control
Acot3 | 1 | 19.8 | 27.1
Acot3 | 2 | 60.5 | 81.1
Acot3 | 3 | 45 | 54
Tbx18 | 1 | 86.3 | 111
Tbx18 | 2 | 98.6 | 85.2
Tbx18 | 3 | 72.7 | 79.5
Myl7 | 1 | 155 (active) | 88
Myl7 | 2 | 116 | 93.7
Ino80c | 1 | 68.2 | 94
Ino80c | 2 | 54.1 | 58.4
Ino80c | 3 | 85.8 | 107
Pacc1 | 1 | 70 | 85.8
Pacc1 | 2 | 61.2 | 78.7
Pacc1 | 3 | 87 | 101
Mbnl1 | 1 | 72.9 | 50.8
Mbnl1 | 2 | 76.1 | 87.5
Mbnl1 | 3 | 74.2 | 73
Sntg2 | 1 | 99.2 | 94.7
Sntg2 | 2 | 78.3 | 56.1
Fbxo46 | 1 | 64.8 | 72.7
Fbxo46 | 2 | 116 | 81.1
Fbxo46 | 3 | 84.5 | 85.9
Mid1ip1 | 1 | 54.5 | 59.8
Mid1ip1 | 2 | 41.8 | 50.5
Mid1ip1 | 3 | 95.8 | 75.3
2900026A02Rik | 1 | 62.3 | 65.5
2900026A02Rik | 2 | 48.6 | 45.6
2900026A02Rik | 3 | 84.4 | 61.9
Zswim4 | 1 | 90.7 | 56.3
Zswim4 | 2 | 47.7 | 53.9
Zswim4 | 3 | 79.7 | 99.5
Chd6 | 1 | 67.1 | 56.3
Chd6 | 2 | 55.6 | 49.7
Chd6 | 3 | 46.3 | 71
F13b | 1 | 65.6 | 53.2
F13b | 2 | 90.9 | 91.2
F13b | 3 | 125 (active) | 75.7
Gper1 | 1 | 95.4 | 90.3
Gper1 | 2 | 108 | 84.9
Gper1 | 3 | 33.4 | 31.5
Slc6a13 | 1 | 93.4 | 68.5
Slc6a13 | 2 | 85.6 | 64.1
Slc6a13 | 3 | 50.2 | 62.3

Already shown: 10 of the entries above.
gene | reagent | GFP, % of control | viability (ATP), % of control
Acot3 | 2 | 60.5 | 81.1
Acot3 | 3 | 45 | 54
Tbx18 | 1 | 86.3 | 111
Tbx18 | 2 | 98.6 | 85.2
Tbx18 | 3 | 72.7 | 79.5
Myl7 | 1 | 155 (active) | 88
Myl7 | 2 | 116 | 93.7
Ino80c | 1 | 68.2 | 94
Ino80c | 2 | 54.1 | 58.4
Ino80c | 3 | 85.8 | 107

Continued:
gene | reagent | GFP, % of control | viability (ATP), % of control
Pigo | 1 | 154 (active) | 71.1
Pigo | 2 | 147 (active) | 83.3
Reg3a | 1 | 91.9 | 77.4
Reg3a | 2 | 73.8 | 65.4
Reg3a | 3 | 74.3 | 58.1
Crispld2 | 1 | 107 | 99.2
Crispld2 | 2 | 78.7 | 52.7
Crispld2 | 3 | 65.3 | 69.9
Mlf1 | 1 | 80.8 | 78.6
Mlf1 | 2 | 112 | 80.4
Mlf1 | 3 | 123 (active) | 122
Rps15 | 1 | 54 | 51.7
Rps15 | 2 | 47.5 | 17.9
Rps15 | 3 | 126 (active) | 86.6
Helz | 1 | 63.1 | 76.8
Helz | 2 | 83 | 81.7
Helz | 3 | 53.2 | 40.1
Ticrr | 1 | 83.7 | 44.4
Ticrr | 2 | 80.3 | 71.4
Ticrr | 3 | 156 (active) | 116
Atp10d | 1 | 102 | 75.9
Atp10d | 2 | 92.9 | 98.2
Atp10d | 3 | 90 | 126
Krtap19-3 | 1 | 75.5 | 82.9
Krtap19-3 | 2 | 70.6 | 59.5
Krtap19-3 | 3 | 173 (active) | 85.2
Rhou | 1 | 64 | 38.5
Rhou | 2 | 28.6 | 41.9
Rhou | 3 | 70.3 | 76.2
Bnc1 | 1 | 71.9 | 73.3
Bnc1 | 2 | 93.7 | 91
Bnc1 | 3 | 153 (active) | 158
Pax1 | 1 | 103 | 90.9
Pax1 | 2 | 108 | 95
Rbms1 | 1 | 108 | 69.8
Rbms1 | 2 | 71.4 | 67.8
Rbms1 | 3 | 42.9 | 65.1
Esrrb | 1 | 91.6 | 64.8
Esrrb | 2 | 154 (active) | 90.4
Cyba | 1 | 79.7 | 77.5
Cyba | 2 | 46.6 | 38.9
Cyba | 3 | 83 | 91.5
Pdcd5 | 1 | 57.3 | 53
Pdcd5 | 2 | 38.4 | 45.4
Pdcd5 | 3 | 41.4 | 65.5
Col28a1 | 1 | 106 | 100
Col28a1 | 2 | 93.1 | 84.3
Col28a1 | 3 | 64 | 73.5
Ube2v1 | 1 | 78.6 | 76.5
Ube2v1 | 2 | 57.5 | 40
Ube2v1 | 3 | 63.2 | 55.1
Sir2l1 | 1 | 45.3 | 49.4
Sir2l1 | 2 | 92.8 | 94.3
Sir2l1 | 3 | 102 | 137
Ptpn7 | 1 | 70.1 | 76.9
Ptpn7 | 2 | 77.1 | 74.4
Ptpn7 | 3 | 73.1 | 87.1
Fen1 | 1 | 90.9 | 104
Fen1 | 2 | 144 (active) | 126
Fen1 | 3 | 57.3 | 55.5
Fat4 | 1 | 70.5 | 92.8
Fat4 | 2 | 63 | 51.3
Fat4 | 3 | 66.5 | 52.4
Trim61 | 1 | 97.2 | 76.1
Trim61 | 2 | 90.8 | 77.9
Trim61 | 3 | 71.3 | 72
